Measured values published in PubChem BioAssay AID2685 (National Center for Advancing Translational Sciences (NCATS), 2010).
Among all 320,000 compounds or so, about 2,100 (0.66%) were called active. Inconclusive results, whose numbers are uncertain, are shown with a selection of clear calls. Calls come from the whole dose curve; as a rule, active = well fitted inhibition curve with a large enough effect in the signal ratio, with a control signal flat (not every such curve was filed as active); inconclusive = small, poorly fitted or top-dose-only effect, or effect the other way, or a change in a side signal; inactive = flat fitted curve, though single readings scatter; the % refers to the signal ratio. Where the call is inconclusive, the potency comes from a doubtful curve fit.

Test: qHTS Assay for Lipid Storage Modulators in Drosophila S3 Cells
Conditions: BODIPY lipid droplet fluorescence, 18-24 h, cells fed with added oleic acid; lipid storage change, negative = inhibition: at 46.1 µM (top of the series) unless noted
Procedure, shortened: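 Laser-scanning cytometry quantifies lipid droplet accumulation (500–530 nm total intensity; droplet/cell object ratio) in oleic acid-fed (400 uM added) Drosophila S3 cells treated with a concentration series. 20 uM Triacsin C defined 100% inhibition.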
% is set by controls: 0 for no effect and ±100 for the full control effect; potency is the fitted concentration of half-maximal effect.

Lipid storage change, negative = inhibition, inactive:
O=C(NNC(=O)c1ccc(Br)s1)NC1CCCCC1 2.2%
Cc1cc[n+](Cc2ccc([N+](=O)[O-])cc2)cc1 -6.36%
Cc1ccc(S(=O)(=O)c2nnn(-c3cccc(F)c3)c2N)cc1 1.42%
COc1ccc(Cn2c(CCC(=O)N3CCN(c4ccccn4)CC3)nc3ncccc3c2=O)cc1 7.18%

Lipid storage change, negative = inhibition, inconclusive:
COc1cccc(NC(=O)CN2CCN(CC(=O)Nc3ccc(F)cc3)CC2)c1 -1.42%
COc1cc(/C=N/Nc2nc(C)cc(C)n2)ccc1OC(=O)c1ccco1 42.4%
COC(=O)c1cnn(C(=O)c2ccccc2Br)c1N 13.7%
O=C(CCc1ccccc1)NCCS(=O)(=O)N1CCN(c2ccccc2)CC1 32.8%
O=C(O)CSc1nc(SCc2ccccc2Cl)nc2c1CCCC2 -25.6%
CC1(C)CC(=O)C2=C(C1)OC(N)=C([N+](=O)[O-])C2c1ccc(C#N)s1 (stereo unspecified) -23.1%
O=C(COc1ccc([N+](=O)[O-])cc1)NC(C(=O)O)C(O)c1cccc([N+](=O)[O-])c1 (stereo unspecified) -10.2%
O=C(NCC(c1cccs1)N1CCOCC1)c1cc(S(=O)(=O)N2CCOCC2)ccc1F (stereo unspecified)
Cc1c(Cl)cccc1NC(=O)c1cc(C2CC2)on1 51.1%
O=C(NCCc1ccc(F)cc1)c1cc2ccccc2oc1=O 49.4%
COc1ccccc1C(=O)OCC(=O)Nc1cccc(S(=O)(=O)N2CCCC2)c1
O=[N+]([O-])c1cccc(-c2n[nH]c(=S)n2Cc2ccccc2)c1 -20.7%
Cc1ccc(C(=O)NCc2cccs2)cc1S(=O)(=O)N1CCCCC1 38.2%
CN(C)S(=O)(=O)c1cccc(NC(=O)CN2C(=O)NC3(CCc4ccccc4C3)C2=O)c1 (stereo unspecified) 12.7%
O=C(CSc1nc(-c2ccco2)cc(C(F)(F)F)n1)Nc1cccnc1 13.3%
Fc1ccc(NC2=NCCCCC2)cc1 -31.9%
C(=N\Nc1nc(N2CCCC2)nc(N2CCCC2)n1)/c1cccnc1 -41.2% [at 9.22 µM]
Cc1cc(N2C(=O)C3C4c5ccccc5C(c5ccccc54)C3C2=O)no1 (stereo unspecified) -48.1%
COc1cccc(NC(=O)C(NCC(C)(C)CN(C)C)c2ccccc2)c1 (stereo unspecified) 4.38%
Cc1cccc(-c2nc(CS(=O)CC(=O)NCc3ccco3)c(C)o2)c1 (stereo unspecified) -36.1%
O=C(CSc1nnc(CNc2ccccc2)o1)N1CCCc2ccccc21 20.6%
c1ccc(-c2nnc(SCc3cn4ccsc4n3)o2)cc1 -6.34%
CCOc1ccccc1C(=O)Nc1cccc(-c2nnc(-c3ccccc3)o2)c1 40.8%
CC(=O)NC(C)c1cc(F)c2cccnc2c1O (stereo unspecified) 13.1%
CC(C)CC(c1nnnn1C(C)C)N1CCN(c2cccc(Cl)c2)CC1 (stereo unspecified) 6.33%
Cn1c(CN2CCCCC2)nc2cc([N+](=O)[O-])ccc21 10.8%
COc1ccc(C)cc1NC(=O)CSc1nc(=O)n(CCCN2CCOCC2)c2c1CCCC2 26.4%
O=C(NNC(=S)NC(=O)c1ccco1)c1ccc(F)cc1 -6.28%
O=c1c2ccccc2cnn1-c1ccc(Cl)nn1 38.9%
CCCN(CCC)C(=O)CSc1nc2ccccc2c(=O)n1C1CCCC1 4.95%
CC(C)NC(=O)CN1C(=O)NC(CCc2ccccc2)C1=O (stereo unspecified) 49.1%
COc1ccc(C(=O)N/N=C/c2c[nH]c3ccccc23)cc1 -86.4%
COc1ccc(C(=O)N2CCOC2CNC(=O)C(=O)NCCc2ccc(OC)c(OC)c2)cc1 (stereo unspecified) 19.4%

Fetched by structure from above (3):
Lipid storage change, negative = inhibition, inconclusive:
O=C(COc1ccc([N+](=O)[O-])cc1)NC(C(=O)O)C(O)c1cccc([N+](=O)[O-])c1 (stereo unspecified) -10.2%
O=C(NCC(c1cccs1)N1CCOCC1)c1cc(S(=O)(=O)N2CCOCC2)ccc1F (stereo unspecified)
c1ccc(-c2nnc(SCc3cn4ccsc4n3)o2)cc1 -6.34%

Following part:

Potency, inconclusive:
O=C(NCc1ccc(N2CCCC2=O)cc1)Nc1ccccc1 11.6 µM [rising, partial curve]
Cc1ccc(SCCC(=O)Nc2ccccc2C(=O)NC2CCCCC2)cc1 0.731 µM [activator, single point]
NC(=O)c1ccc(NC(=O)c2ccc(COc3ccc(F)cc3)o2)cc1 20.6 µM [activator, partial curve]
O=C(NCC1CCCO1)c1ccc(CS(=O)(=O)c2c(Cl)cccc2Cl)o1 (stereo unspecified) 29.1 µM [activator, single point]
CS(=O)(=O)Oc1ccc2c(c1)O/C(=C\c1cccnc1)C2=O 0.092 µM [falling, full curve, poor fit]
CC1CCCC/C1=N\NC(=S)Nc1cccnc1 (stereo unspecified) 0.0411 µM [activator, full curve, poor fit]
CC(=O)Oc1ccc2c(C)c(CC(C)O)c(=O)oc2c1 (stereo unspecified) 10.3 µM [activator, single point]
COc1ccccc1CN(Cc1cc2cc3c(cc2[nH]c1=O)OCCO3)Cc1nnnn1Cc1ccco1 5.17 µM [falling, full curve]
Cc1cc(C(=O)N/N=C/c2c3ccccc3cc3ccccc23)n[nH]1 2.31 µM [activator, partial curve]
Cn1c(=O)c2c(nc(CN3CCN(C(=O)c4ccco4)CC3)n2Cc2ccc(F)cc2)n(C)c1=O 1.3 µM [activator, full curve, poor fit]
CN(C)N1C(N)=C(C#N)C(c2cccc3ccccc23)C2=C1CC(c1ccccc1)CC2=O (stereo unspecified) 29.1 µM [falling, single point]
O=C(CN1CCN(c2ccccn2)CC1)NC1CCCC1 29.1 µM [activator, single point]
COC(c1ccccc1)c1nnc(CCC(=O)N(C)CCc2ccccc2)o1 (stereo unspecified) 25.9 µM [falling, single point]

Potency, active:
CC(C)c1ccc(/C=C2\SC(=O)N(CC(=O)NC3CCS(=O)(=O)C3)C2=O)cc1 (stereo unspecified) 2.59 µM
